Results are given in words; binding and its absence hold for the method and conditions named. Some results given as binding are weak or reduced against the parent protein; the word gives no strength.
Target: GRP78 fused to the photoactivatable Tag-red fluorescent protein (PATagRFP-GRP78) (human) (UniProt P11021)
Test: dual-color single-particle tracking (sptPALM, TIRF); live MCF7-LR cells co-transfected with PATagRFP-GRP78 and CD44v-PAGFP, on collagen I-coated coverslips, 30 ms/frame; co-diffusion and co-confinement of single trajectories at the plasma membrane

The chains behind the UniProt entries cited, without tags or fusion partners. Where a name states a change or a piece, a line headed by the entry shows the natural chain unless it says otherwise. A line that says so, or that is headed by a name, gives the form on record, which may keep a tag or linker. Residues count along the entry.
UniProt P11021, residues 19-654: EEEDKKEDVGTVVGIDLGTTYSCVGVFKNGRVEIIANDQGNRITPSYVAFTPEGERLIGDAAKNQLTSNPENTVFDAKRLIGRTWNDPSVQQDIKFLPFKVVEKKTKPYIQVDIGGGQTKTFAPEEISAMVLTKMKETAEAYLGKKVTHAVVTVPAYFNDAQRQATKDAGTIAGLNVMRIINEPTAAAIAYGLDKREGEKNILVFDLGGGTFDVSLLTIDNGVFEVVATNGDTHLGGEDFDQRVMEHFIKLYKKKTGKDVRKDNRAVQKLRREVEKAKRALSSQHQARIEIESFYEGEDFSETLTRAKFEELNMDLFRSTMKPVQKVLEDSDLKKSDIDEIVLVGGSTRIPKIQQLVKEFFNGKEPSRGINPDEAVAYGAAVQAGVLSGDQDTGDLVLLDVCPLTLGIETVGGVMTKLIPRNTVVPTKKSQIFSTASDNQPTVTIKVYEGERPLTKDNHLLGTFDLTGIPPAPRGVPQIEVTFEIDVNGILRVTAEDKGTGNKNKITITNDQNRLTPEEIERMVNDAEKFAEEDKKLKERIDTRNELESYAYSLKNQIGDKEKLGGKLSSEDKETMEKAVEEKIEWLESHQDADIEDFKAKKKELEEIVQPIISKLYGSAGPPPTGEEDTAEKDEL
CD44v fused to the photoactivatable green fluorescent protein (CD44v-PAGFP) (P16070-4, form named): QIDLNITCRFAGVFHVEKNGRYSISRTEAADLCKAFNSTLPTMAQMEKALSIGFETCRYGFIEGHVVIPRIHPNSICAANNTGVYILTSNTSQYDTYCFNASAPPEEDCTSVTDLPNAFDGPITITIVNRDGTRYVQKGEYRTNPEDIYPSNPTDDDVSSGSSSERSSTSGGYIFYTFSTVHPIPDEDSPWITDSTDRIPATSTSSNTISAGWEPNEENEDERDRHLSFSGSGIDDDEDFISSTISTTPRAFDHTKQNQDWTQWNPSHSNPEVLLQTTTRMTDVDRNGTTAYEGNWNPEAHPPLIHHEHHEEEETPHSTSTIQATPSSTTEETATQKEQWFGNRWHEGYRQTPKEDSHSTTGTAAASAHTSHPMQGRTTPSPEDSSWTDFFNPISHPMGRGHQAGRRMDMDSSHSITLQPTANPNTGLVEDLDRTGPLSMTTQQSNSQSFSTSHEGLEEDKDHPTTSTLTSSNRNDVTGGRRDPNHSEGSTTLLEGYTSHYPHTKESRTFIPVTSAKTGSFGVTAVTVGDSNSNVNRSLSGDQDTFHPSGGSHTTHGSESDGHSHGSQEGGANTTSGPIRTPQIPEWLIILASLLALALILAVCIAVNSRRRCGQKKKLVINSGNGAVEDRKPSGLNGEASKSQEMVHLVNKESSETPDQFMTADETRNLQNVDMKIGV

binding: binds
Substance: CD44v fused to the photoactivatable green fluorescent protein (CD44v-PAGFP) (from UniProt P16070-4 21-699) (receptor)

Source: publication PMC6696983
